# Assay results: PubChem BioAssay AID1347423 (Functional Genomics Laboratory (NCATS/FGL), 2020)
# In all, about 52,000 sequences went through this assay and about 210 (0.4%) were called active.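 How the source made its calls: active means gene whose silencing raises cell survival under the drug, median off-target-corrected z-score across its silencing RNAs 2 or more; inactive means the rest.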 The list shows a part of the results.
# Assay: Resistance to Poly (ADP-Ribose) Polymerase inhibitor: Gene Identification via Genome-wide siRNA Screen
# Settings: mouse BRCA2 R2336H ES cells, olaparib, CellTiter-Glo viability; active compounds read high
# How it was run: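 Genome-wide siRNA screen (3 siRNAs/gene, 20 nM) in mouse ES cells carrying hypomorphic BRCA2 R2336H; olaparib 500 nM added 48 h post-transfection, CellTiter-Glo viability 72 h later. Normalized to plate-median negative control; MAD z-scores, gene median, seed-adjusted.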
row,Sequence,z-score
1,GGAAGAGCAAAUAUGAGAATT against Syp,inactive: 0.0265
2,GCGUGUUCAACACCAACUUTT against Rdh8,inactive: 0.744
3,GAACUGGAAUGCCUGAUGGTT against Rslcan24,inactive: -2.19
4,UAUCCUAUGGCUUUCCUGGTT against Olfr485,inactive: 0.238
5,GGUUCUGCUGUACUCCUUGTT against Wdr8,inactive: -0.823
6,GGAGAUAGAGACCCUAGUGTT against Tas2r124,inactive: -0.827
7,GGAAAACAACGAAUUGCUCTT against C80913,inactive: -0.142
8,GGCAGUUCGUCAGCUUCAUTT against Bhmt,inactive: -1.29
9,GGAUGCUAUAAAGAAUGCCTT against Prpf39,inactive: 1.72
10,GGAAUAUUAUGGGUAUCGATT against Cacna1s,inactive: -0.443
11,GGCUCCGAGAAAUGCAAUCTT against Mmp13,inactive: 0.896
12,GGAGUCACUCACAUUGUGGTT against Poll,inactive: -1.6
13,CCAUUAUGAUUUAUGCUCCTT against Kcnmb4,inactive: 0.159
14,GGUAGUCAUACAGAUAUGUTT against Hey2,inactive: 1.05
15,GAGCAUCCGCUACUUGGUATT against Nmnat1,inactive: -0.726
16,GGAGGAUGGUGCCAACAUUTT against Psmc3,inactive: -1.14
17,GGAACAUGUAGAAGGUCCATT against Slc9a3r2,inactive: 0.965
18,GGAUUUCUUCUUUAUCAAGTT against 4933403H06Rik,inactive: 0.967
19,GGAGGAAAGAAAAGAUCCATT against Tie1,inactive: 0.484
20,CCAAUUCCCAAAAUUAGCCTT against A930026L03Rik,inactive: 1.23
21,GGACAUUCCUGUUGAUAAUTT against Kcnj8,inactive: -0.552
22,CGUGAACAUUGACCCAGAATT against Clm3,inactive: -1.2

row,Sequence,z-score
1,GGCAAACCAGUGUUCCCUATT against 1810009M01Rik,inactive: -0.229
2,GGGCAUUUUGAUGCUUACGTT against 1700034I23Rik,inactive: -0.368
3,GGCUUCGACUGUUGAGAUUTT against 2-Sep,inactive: 1.23
4,GGAAUCCUUCACUGAUGAATT against Pilrb,inactive: -0.768
5,GGGACUUUCAUAAUGCCAGTT against Snip1,inactive: 0.733
6,GGAGGAAGAGGAGAAUCUATT against Supt6h,inactive: -2.46
7,GGAGCCCAGGAAGAUGACATT against Cyp2c54,inactive: -0.806
8,GCUGAUAAGGAGGUACCAUTT against Igf2r,inactive: 0.147
9,GGACACAACAAGAAAUUCUTT against Suclg1,inactive: -0.812
10,GGCAUUAGCUACCUGGACATT against 1700013G24Rik,inactive: 0.995
11,GGAGAAAACCUAGAAAUUUTT against Galnt1,inactive: 1.07
12,GUCUACCUUGUUUAUGACCTT against 2410015M20Rik,inactive: -0.502
13,GCGAAUCGCACAGGAUCUUTT against Hps4,inactive: -1.74
14,GAACUCAAAGAAUAAAUCCTT against Ms4a6d,inactive: 0.877
15,GCCUACACCAGUCCUUUGATT against 1300006M19Rik,inactive: -0.984
16,GCAAGCUUCAAGAAGUAAGTT against Cenph,inactive: -0.148
17,GCAAGCACGGAGAACCAAUTT against D5Wsu178e,inactive: -2.03
18,GGAAGGCCGAGAAGAAUUCTT against Myst1,inactive: 0.387
19,CGUGAUCAAAACUCACAUGTT against BC010801,inactive: -0.578
20,GGUUUAUGGAGCAAGUGAUTT against Actr3,inactive: -1.76
21,GGUCGUAUGGUGCUCAAGATT against Pira1,inactive: -1.25
22,GGGAAGAGAAUGAUUAAAUTT against 9630048M01Rik,inactive: 0.339

row,Sequence,z-score
1,GGAAGAAUGUGGAGGCUAUTT against Tnni1,inactive: -0.564
2,GGAGAAGUAGAUGUAUAUGTT against Prkar1b,inactive: -0.118
3,GCUCUUUUAAUAUCACUGCTT against Heyl,inactive: -0.217
4,GGUCUGUGCAAGCAAAUCGTT against Cacng2,inactive: -0.21
5,CGACUUCAUAAGGUAUGCATT against Tnfrsf22,inactive: 0.676
6,GGAACAGUUCAAGUGAAGCTT against Sertad2,inactive: -0.407
7,ACUGGAUACUCCACUCAACTT against Olfr46,inactive: 0.172
8,GGAUUUGGCAAAAUCUUCCTT against 2810441O16Rik,inactive: 0.329
9,GGGAGAGUGGAUCAUCAAUTT against P2ry10,inactive: 1.94
10,GGUUAAGGAUGCUCAAGUATT against Krt20,inactive: 1.02
11,GGGCGGUAAAGAUUUCCUUTT against Scn3b,inactive: 1.4
12,GGAAAUAGAUCCUUUUUGATT against 2510039O18Rik,inactive: -0.247
13,CCGCAUGUAUCAUAUCAAATT against Dhx37,inactive: -1.16
14,CCGUACCUACAAGUUCACUTT against MGC58365,inactive: 0.0574
15,GGCUAGAUCCAAUGCUUCUTT against Dlgap1,inactive: -0.697
16,GGUGCACUUUGAAUCAGGGTT against Uchl4,inactive: -0.391
17,GGCUUCAAAACAUUUUCAGTT against 1110028C15Rik,inactive: 0.588
18,GGAGUGUAUUAAGAUUUCUTT against AA407526,inactive: -0.323
19,GGUGAGAAUUUGAGAAAGATT against Dgka,inactive: -1.14
20,GGAGGAAAAGGAAAGAGAATT against Fgd1,inactive: -1.32
21,GCUAUACCAGGAGGUAGAUTT against E130112L23Rik,inactive: 1.56
22,GGGUAGUUGUUACUGUUGUTT against Sprr2f,inactive: -0.12

# Single entries from the entries so far:
# In z-score, GGCUUCGACUGUUGAGAUUTT against 2-Sep is entered as inactive: 1.23
# In z-score, CCAAUUCCCAAAAUUAGCCTT against A930026L03Rik is entered as inactive: 1.23
